# In the supplement of paper PMC8728848:
# This is one part of the list.
# Key:
# Assay in all cases: glycan array binding signal (z-score within array); higher = stronger binding
# Settings in all cases: glycan notation: IUPAC condensed, linker removed
# GalNAc(b1-3)GalNAc = molecular target: GalNAc(b1-3)GalNAc
# In short: (§1)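 The Consortium for Functional Glycomics database supplied 3228 glycan arrays, of which those lacking an available protein sequence were dropped. The binding signal, a within-array Z-score, was averaged across arrays of the same protein sequence and across linkers. Negative scores can be read as non-binding.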
# GalNAc(b1-4)GlcNAc = molecular target: GalNAc(b1-4)GlcNAc
# In short: as §1
# [1] = molecular target: GalNAc(b1-4)GlcNAc(b1-2)Man(a1-3)[GalNAc(b1-4)GlcNAc(b1-2)Man(a1-6)]Man(b1-4)GlcNAc(b1-4)GlcNAc
# In short: as §1
# GalNAc(b1-6)GalNAc = molecular target: GalNAc(b1-6)GalNAc
# In short: as §1
# Glc(a1-4)Glc = molecular target: Glc(a1-4)Glc
# In short: as §1
# Glc(a1-6)Glc(a1-6)Glc = molecular target: Glc(a1-6)Glc(a1-6)Glc
# In short: as §1
# Glc(b1-4)Glc = molecular target: Glc(b1-4)Glc
# In short: as §1
# Glc(b1-6)Glc = molecular target: Glc(b1-6)Glc
# In short: as §1
# GlcA(b1-3)Gal = molecular target: GlcA(b1-3)Gal
# In short: as §1
# GlcA(b1-3)GlcNAc = molecular target: GlcA(b1-3)GlcNAc
# In short: as §1
# GlcA(b1-6)Gal = molecular target: GlcA(b1-6)Gal
# In short: as §1
# [2] = molecular target: GlcNAc(a1-3)Gal(b1-4)GlcNAc
# In short: as §1
# [3] = molecular target: GlcNAc(a1-4)Gal(b1-3)GlcNAc
# In short: as §1
# [4] = molecular target: GlcNAc(a1-4)Gal(b1-4)GalNAc
# In short: as §1
# [5] = molecular target: GlcNAc(a1-4)Gal(b1-4)GlcNAc
# In short: as §1
# [6] = molecular target: GlcNAc(a1-4)Gal(b1-4)GlcNAc(b1-3)Gal(b1-4)Glc
# In short: as §1
# [7] = molecular target: GlcNAc(a1-4)Gal(b1-4)GlcNAc(b1-3)Gal(b1-4)GlcNAc
# In short: as §1
# [8] = molecular target: GlcNAc(a1-4)Gal(b1-4)GlcNAc(b1-3)Gal(b1-4)GlcNAc(b1-3)Gal(b1-4)GlcNAc
# In short: as §1
# [9] = molecular target: GlcNAc(a1-4)Gal(b1-4)GlcNAc(b1-3)Gal(b1-4)[Fuc(a1-3)]GlcNAc(b1-3)Gal(b1-4)[Fuc(a1-3)]GlcNAc
# In short: as §1
# [10] = molecular target: GlcNAc(a1-6)Gal(b1-4)GlcNAc
# In short: as §1
# [11] = molecular target: GlcNAc(b1-2)Gal(b1-3)GalNAc
# In short: as §1
# [12] = molecular target: GlcNAc(b1-2)Man(a1-3)[GlcNAc(b1-2)Man(a1-6)]Man(b1-4)GlcNAc(b1-4)GlcNAc
# In short: as §1
# [13] = molecular target: GlcNAc(b1-2)Man(a1-3)[GlcNAc(b1-2)Man(a1-6)]Man(b1-4)GlcNAc(b1-4)[Fuc(a1-6)]GlcNAc
# In short: as §1
# [14] = molecular target: GlcNAc(b1-2)Man(a1-3)[GlcNAc(b1-4)][GlcNAc(b1-2)Man(a1-6)]Man(b1-4)GlcNAc(b1-4)GlcNAc
# In short: as §1
# [15] = molecular target: GlcNAc(b1-2)[GlcNAc(b1-4)]Man(a1-3)[GlcNAc(b1-2)Man(a1-6)]Man(b1-4)GlcNAc(b1-4)GlcNAc
# In short: as §1
# [16] = molecular target: GlcNAc(b1-2)[GlcNAc(b1-4)]Man(a1-3)[GlcNAc(b1-4)][GlcNAc(b1-2)Man(a1-6)]Man(b1-4)GlcNAc(b1-4)GlcNAc
# In short: as §1
# [17] = molecular target: GlcNAc(b1-2)[GlcNAc(b1-4)]Man(a1-3)[GlcNAc(b1-4)][GlcNAc(b1-2)[GlcNAc(b1-6)]Man(a1-6)]Man(b1-4)GlcNAc(b1-4)GlcNAc
# In short: as §1
# [18] = molecular target: GlcNAc(b1-2)[GlcNAc(b1-6)]Man(a1-6)[GlcNAc(b1-2)Man(a1-3)]Man(b1-4)GlcNAc(b1-4)GlcNAc
# In short: as §1
# [19] = molecular target: GlcNAc(b1-2)[GlcNAc(b1-6)]Man(a1-6)[GlcNAc(b1-2)Man(a1-3)][GlcNAc(b1-4)]Man(b1-4)GlcNAc(b1-4)GlcNAc
# In short: as §1
# GlcNAc(b1-3)Gal = molecular target: GlcNAc(b1-3)Gal
# In short: as §1
# [20] = molecular target: GlcNAc(b1-3)Gal(b1-3)GalNAc
# In short: as §1
# GlcNAc(b1-3)Gal(b1-4)Glc = molecular target: GlcNAc(b1-3)Gal(b1-4)Glc
# In short: as §1
# [21] = molecular target: GlcNAc(b1-3)Gal(b1-4)GlcNAc
# In short: as §1
# [22] = molecular target: GlcNAc(b1-3)Gal(b1-4)GlcNAc(b1-3)Gal(b1-4)GlcNAc
# In short: as §1
# GlcNAc(b1-3)GalNAc = molecular target: GlcNAc(b1-3)GalNAc
# In short: as §1
# GlcNAc(b1-3)Man = molecular target: GlcNAc(b1-3)Man
# In short: as §1
# [23] = molecular target: GlcNAc(b1-3)[GlcNAc(b1-4)][GlcNAc(b1-6)]GlcNAc
# In short: as §1
# [24] = molecular target: GlcNAc(b1-3)[GlcNAc(b1-6)]Gal(b1-4)GlcNAc
# In short: as §1
# [25] = molecular target: GlcNAc(b1-3)[GlcNAc(b1-6)]GalNAc
# In short: as §1
# [26] = molecular target: GlcNAc(b1-4)Gal(b1-4)GlcNAc
# In short: as §1
# GlcNAc(b1-4)GlcNAc = molecular target: GlcNAc(b1-4)GlcNAc
# In short: as §1
# [27] = molecular target: GlcNAc(b1-4)GlcNAc(b1-4)GlcNAc
# In short: as §1
# [28] = molecular target: GlcNAc(b1-4)GlcNAc(b1-4)GlcNAc(b1-4)GlcNAc(b1-4)GlcNAc
# In short: as §1
# [29] = molecular target: GlcNAc(b1-4)GlcNAc(b1-4)GlcNAc(b1-4)GlcNAc(b1-4)GlcNAc(b1-4)GlcNAc
# In short: as §1
# [30] = molecular target: GlcNAc(b1-4)[GlcNAc(b1-6)]GalNAc
# In short: as §1
binder,measurement,setting,value
"rPitB (Streptococcus pneumoniae), A0A0I7U739 (protein) MSEIEIINAKKIYHDVPVIENLNITIPKGSLFTLLGASGCGKTTLLRMIAGFNSIKDGEFYFDDTKINNMEPSKRNIGLVFQNYAIFPHLTVRDNVAFGLMQKKVPKEELIQQTNKYLELMQIAQYAD",glycan array binding signal (z-score),GalNAc(b1-3)GalNAc,0.302
same,glycan array binding signal (z-score),GalNAc(b1-4)GlcNAc,-0.736
same,glycan array binding signal (z-score),[1],0.314
same,glycan array binding signal (z-score),GalNAc(b1-6)GalNAc,-0.608
same,glycan array binding signal (z-score),Glc(a1-4)Glc,0.07
same,glycan array binding signal (z-score),Glc(a1-6)Glc(a1-6)Glc,-0.433
same,glycan array binding signal (z-score),Glc(b1-4)Glc,0.631
same,glycan array binding signal (z-score),Glc(b1-6)Glc,-0.176
same,glycan array binding signal (z-score),GlcA(b1-3)Gal,-0.403
same,glycan array binding signal (z-score),GlcA(b1-3)GlcNAc,5.72
same,glycan array binding signal (z-score),GlcA(b1-6)Gal,-0.303
same,glycan array binding signal (z-score),[2],0.422
same,glycan array binding signal (z-score),[3],-0.201
same,glycan array binding signal (z-score),[4],-0.698
same,glycan array binding signal (z-score),[5],0.268
same,glycan array binding signal (z-score),[6],0.462
same,glycan array binding signal (z-score),[7],0.021
same,glycan array binding signal (z-score),[8],-0.388
same,glycan array binding signal (z-score),[9],3.89
same,glycan array binding signal (z-score),[10],0.531
same,glycan array binding signal (z-score),[11],-0.153
same,glycan array binding signal (z-score),[12],0.13
same,glycan array binding signal (z-score),[13],0.78
same,glycan array binding signal (z-score),[14],-0.914
same,glycan array binding signal (z-score),[15],0.237
same,glycan array binding signal (z-score),[16],-1.01
same,glycan array binding signal (z-score),[17],-0.276
same,glycan array binding signal (z-score),[18],-0.33
same,glycan array binding signal (z-score),[19],0.281
same,glycan array binding signal (z-score),GlcNAc(b1-3)Gal,-0.16
same,glycan array binding signal (z-score),[20],0.425
same,glycan array binding signal (z-score),GlcNAc(b1-3)Gal(b1-4)Glc,-0.53
same,glycan array binding signal (z-score),[21],-0.457
same,glycan array binding signal (z-score),[22],-0.838
same,glycan array binding signal (z-score),GlcNAc(b1-3)GalNAc,-0.397
same,glycan array binding signal (z-score),GlcNAc(b1-3)Man,-0.246
same,glycan array binding signal (z-score),[23],0.058
same,glycan array binding signal (z-score),[24],0.187
same,glycan array binding signal (z-score),[25],0.67
same,glycan array binding signal (z-score),[26],1.14
same,glycan array binding signal (z-score),GlcNAc(b1-4)GlcNAc,0.156
same,glycan array binding signal (z-score),[27],-0.783
same,glycan array binding signal (z-score),[28],-0.632
same,glycan array binding signal (z-score),[29],0.263
same,glycan array binding signal (z-score),[30],0.05

# A second format for part of the listing above.
binder	measurement	setting	value
rPitB (Streptococcus pneumoniae), A0A0I7U739 (protein) MSEIEIINAKKIYHDVPVIENLNITIPKGSLFTLLGASGCGKTTLLRMIAGFNSIKDGEFYFDDTKINNMEPSKRNIGLVFQNYAIFPHLTVRDNVAFGLMQKKVPKEELIQQTNKYLELMQIAQYAD	glycan array binding signal (z-score)	[22]	-0.838
same	glycan array binding signal (z-score)	[28]	-0.632
